Assay results from paper PMC5009064.
No constants are given. Whether binding was seen depends on the method and setting. Binding seen in cells or lysates may run through a third protein. Some binding calls cover weakened binding; strength is not graded here.

Chains of the proteins cited; added tags and fusions are not shown. Lines headed by an entry give the natural chain unless they say otherwise; changes in a name come on top.
UniProt Q96EP0: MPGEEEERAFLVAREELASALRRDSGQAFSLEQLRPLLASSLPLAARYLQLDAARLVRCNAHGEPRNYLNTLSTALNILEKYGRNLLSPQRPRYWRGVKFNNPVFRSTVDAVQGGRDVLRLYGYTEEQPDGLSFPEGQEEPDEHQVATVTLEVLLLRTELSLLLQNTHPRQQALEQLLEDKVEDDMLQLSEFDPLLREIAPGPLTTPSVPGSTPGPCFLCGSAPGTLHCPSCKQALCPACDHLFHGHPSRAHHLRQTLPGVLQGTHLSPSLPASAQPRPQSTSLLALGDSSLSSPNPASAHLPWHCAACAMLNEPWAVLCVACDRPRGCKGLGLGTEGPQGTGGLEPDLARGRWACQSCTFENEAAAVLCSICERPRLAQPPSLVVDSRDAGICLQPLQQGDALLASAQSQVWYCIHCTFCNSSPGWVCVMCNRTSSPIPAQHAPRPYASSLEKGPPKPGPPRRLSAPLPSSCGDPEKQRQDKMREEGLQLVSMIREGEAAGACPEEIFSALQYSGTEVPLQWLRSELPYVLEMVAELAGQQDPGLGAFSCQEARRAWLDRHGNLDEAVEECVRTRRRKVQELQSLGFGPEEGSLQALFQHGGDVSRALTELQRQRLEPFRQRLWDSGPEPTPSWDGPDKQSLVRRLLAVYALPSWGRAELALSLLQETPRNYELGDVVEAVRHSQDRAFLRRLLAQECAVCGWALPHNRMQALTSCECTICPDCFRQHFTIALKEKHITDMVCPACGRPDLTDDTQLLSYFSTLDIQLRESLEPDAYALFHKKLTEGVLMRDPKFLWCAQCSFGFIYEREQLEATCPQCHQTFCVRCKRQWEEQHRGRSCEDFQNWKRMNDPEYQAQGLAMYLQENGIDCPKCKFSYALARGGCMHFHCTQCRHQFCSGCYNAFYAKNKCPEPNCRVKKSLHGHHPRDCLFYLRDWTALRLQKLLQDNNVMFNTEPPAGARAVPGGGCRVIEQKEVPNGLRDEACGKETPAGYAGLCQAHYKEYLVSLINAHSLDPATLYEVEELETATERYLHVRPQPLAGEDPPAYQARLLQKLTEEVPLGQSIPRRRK

Assays:
[1] = molecular target: TAP-tagged wild-type HOIP (UniProt Q96EP0); assay: co-IP; HOIP-TAP complexes purified from reconstituted HOIP-deficient K562 cells, western blot
FLAG-HOIP-WT = FLAG-HOIP-WT (UniProt Q96EP0); assay: co-IP; HOIP-deficient K562 cells reconstituted with FLAG-HOIP-WT or truncated FLAG-HOIP; IP of HOIP, western blot
HOIP-N102A = HOIP-N102A (UniProt Q96EP0); assay: co-IP; same experiment as a7 (TNFR1-SC purified by FLAG-TNF from HOIP-deficient A549 cells reconstituted with HOIP-N102A), read for SPATA2 and HOIP-N102A, both in cells

binding [1]: binds
binding (FLAG-HOIP-WT): binds
binding (HOIP-N102A): no binding
B1: SPATA2 (protein, UniProt Q9UM82 1-520)
chain: MGKPSSMDTKFKDDLFRKYVQFHESKVDTTTSRQRPGSDECLRVAASTLLSLHKVDPFYRFRLIQFYEVVESSLRSLSSSSLRALHGAFSMLETVGINLFLYPWKKEFRSIKTYTGPFVYYVKSTLLEEDIRAILSCMGYTPELGTAYKLRELVETLQVKMVSFELFLAKVECEQMLEIHSQVKDKGYSELDIVSERKSSAEDVRGCSDALRRRAEGREHLTASMSRVALQKSASERAAKDYYKPRVTKPSRSVDAYDSYWESRKPPLKASLSLRKEPVATDVGDDLKDEIIRPSPSLLTMASSPHGSPDVLPPASPSNGPALLRGTYFSTQDDVDLYTDSEPRATYRRQDALRPDVWLLRNDAHSLYHKRSPPAKESALSKCQSCGLSCSSSLCQRCDSLLTCPPASKPSAFPSKASTHDSLAHGASLREKYPGQTQGLDRLPHLHSKSKPSTTPTSRCGFCNRPGATNTCTQCSKVSCDACLSAYHYDPCYKKSELHKFMPNNQLNYKSTQLSHLVYR
